According to the supplement of paper PMC12593923:
Counter-ions that a name gives are not always drawn. Some well-known active drugs show little effect in this data set, so a weak value is uncertain.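 OVCAR3, described as chemosensitive, is one of three high-grade serous ovarian cancer lines that differ in chemosensitivity. Toxicity was scaled from DMSO vehicle wells to fully lysed wells; scores came from fitted multi-dose response curves, and the authors treated scores above 5 as indicating drug sensitivity.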

Experiments:
Assay in all cases: drug sensitivity score (DSS2, cytotoxicity, CellTox Green); higher = more cytotoxic / more sensitive; extreme values may be limits of the assay
Details in all cases: 72 h; doses 0.5, 1, 5 µM
Kuramochi = tested on: Kuramochi
OVCAR3 = tested on: OVCAR3
OVCAR4 = tested on: OVCAR4

In the case of `COC(=O)/C=C/C(=O)OC` [Dimethyl fumarate], the drug sensitivity score (Kuramochi) is reported as 0.1 DSS, the drug sensitivity score (OVCAR3) is reported as 0 DSS and the drug sensitivity score (OVCAR4) is reported as 0 DSS.
Molecule `Oc1c(I)cc(Cl)c2cccnc12` [Clioquinol] has a drug sensitivity score (Kuramochi) of 0 DSS, a drug sensitivity score (OVCAR3) of 0 DSS and a drug sensitivity score (OVCAR4) of 0 DSS.
For `C[C@H]1Oc2cc(cnc2N)-c2c(nn(C)c2C#N)CN(C)C(=O)c2ccc(F)cc21` [Lorlatinib], the drug sensitivity score (Kuramochi) was 0 DSS, the drug sensitivity score (OVCAR3) was 0 DSS and the drug sensitivity score (OVCAR4) was 0 DSS.
Work on `CC(C)(CO)c1cc2cc(NC(=O)C3(c4ccc5c(c4)OC(F)(F)O5)CC3)c(F)cc2n1C[C@@H](O)CO` [Tezacaftor] yielded a drug sensitivity score (Kuramochi) of 0 DSS, a drug sensitivity score (OVCAR3) of 0 DSS and a drug sensitivity score (OVCAR4) of 0 DSS.
`CC#C[C@]1(O)CC[C@H]2[C@@H]3CCC4=CC(=O)CCC4=C3[C@@H](c3ccc(N(C)C)cc3)C[C@@]21C` [Mifepristone] gave a drug sensitivity score (Kuramochi) of 0 DSS, a drug sensitivity score (OVCAR3) of 0 DSS and a drug sensitivity score (OVCAR4) of 0 DSS.
For `Cc1cnc(NC(=O)C2=C(O)c3ccccc3S(=O)(=O)N2C)s1` [Meloxicam], the drug sensitivity score (Kuramochi) was 0 DSS, the drug sensitivity score (OVCAR3) was 0 DSS and the drug sensitivity score (OVCAR4) was 0 DSS.
In the case of `COc1nc(N)nc2c1ncn2[C@@H]1O[C@H](CO)[C@@H](O)[C@@H]1O` [Nelarabine], the drug sensitivity score (Kuramochi) is reported as 0 DSS, the drug sensitivity score (OVCAR3) is reported as 0 DSS and the drug sensitivity score (OVCAR4) is reported as 0 DSS.
With `CC#CCn1c(N2CCC[C@@H](N)C2)nc2c1c(=O)n(Cc1nc(C)c3ccccc3n1)c(=O)n2C` [Linagliptin] the drug sensitivity score (Kuramochi) was 0 DSS, the drug sensitivity score (OVCAR3) was 0 DSS and the drug sensitivity score (OVCAR4) was 0 DSS.
Molecule `C[C@H](Oc1cc(-c2cnn(C3CCNCC3)c2)cnc1N)c1c(Cl)ccc(F)c1Cl` [(S)-Crizotinib] has a drug sensitivity score (Kuramochi) of 0 DSS, a drug sensitivity score (OVCAR3) of 0 DSS and a drug sensitivity score (OVCAR4) of 0 DSS.
`N#Cc1c2ccc(N)cc2nc2cc(N)ccc12` [CTX1] gave a drug sensitivity score (Kuramochi) of 0 DSS, a drug sensitivity score (OVCAR3) of 0 DSS and a drug sensitivity score (OVCAR4) of 0 DSS.
`Cc1ccc(=O)n(-c2ccccc2)c1` [Pirfenidone] showed a drug sensitivity score (Kuramochi) of 0 DSS, a drug sensitivity score (OVCAR3) of 0 DSS and a drug sensitivity score (OVCAR4) of 0 DSS.
In the case of `NS(=O)(=O)C#Cc1ccccc1` [Pifithrin-μ], the drug sensitivity score (Kuramochi) is reported as 2.8 DSS, the drug sensitivity score (OVCAR3) is reported as 2.3 DSS and the drug sensitivity score (OVCAR4) is reported as 2.4 DSS.
In the case of `CC(C)C(=O)Nc1ccc([N+](=O)[O-])c(C(F)(F)F)c1` [Flutamide], the drug sensitivity score (Kuramochi) is reported as 0 DSS, the drug sensitivity score (OVCAR3) is reported as 0 DSS and the drug sensitivity score (OVCAR4) is reported as 0 DSS.
For `CN(C)C(=O)c1cc2cnc(Nc3ccc(N4CCNCC4)cn3)nc2n1C1CCCC1` [Ribociclib succinate], the drug sensitivity score (Kuramochi) was 0 DSS, the drug sensitivity score (OVCAR3) was 0 DSS and the drug sensitivity score (OVCAR4) was 0 DSS.
Molecule `COC(=O)Nc1nc2cc(C(=O)c3ccccc3)ccc2[nH]1` [Mebendazole] has a drug sensitivity score (Kuramochi) of 1.9 DSS, a drug sensitivity score (OVCAR3) of 3.6 DSS and a drug sensitivity score (OVCAR4) of 0 DSS.
`Cc1cc(C2CCCCC2)n(O)c(=O)c1` [Ciclopirox (olamine)] gave a drug sensitivity score (Kuramochi) of 0 DSS, a drug sensitivity score (OVCAR3) of 0 DSS and a drug sensitivity score (OVCAR4) of 0 DSS.
`NNC(=O)c1ccncc1` [Isoniazid] was tested, and the drug sensitivity score (Kuramochi) was 0 DSS, the drug sensitivity score (OVCAR3) was 0 DSS and the drug sensitivity score (OVCAR4) was 0 DSS.
Work on `COc1cccc2c1C(=O)c1c(O)c3c(c(O)c1C2=O)C[C@@](O)(C(=O)CO)C[C@@H]3O[C@H]1C[C@H](N)[C@H](O[C@@H]2CCCCO2)[C@H](C)O1` [Pirarubicin (Hydrochloride)] yielded a drug sensitivity score (Kuramochi) of 0 DSS, a drug sensitivity score (OVCAR3) of 0 DSS and a drug sensitivity score (OVCAR4) of 0 DSS.
`O=C(c1cc(Cc2n[nH]c(=O)c3ccccc23)ccc1F)N1CCN(C(=O)C2CC2)CC1` [Olaparib] showed a drug sensitivity score (Kuramochi) of 0 DSS, a drug sensitivity score (OVCAR3) of 0 DSS and a drug sensitivity score (OVCAR4) of 0 DSS.
Work on `CC[C@@]1(O)C(=O)OCc2c1cc1n(c2=O)Cc2cc3cc(O)ccc3nc2-1` [(S)-10-Hydroxycamptothecin] yielded a drug sensitivity score (Kuramochi) of 0.4 DSS, a drug sensitivity score (OVCAR3) of 3.1 DSS and a drug sensitivity score (OVCAR4) of 0 DSS.
`CCCCNC(=O)NS(=O)(=O)c1ccc(C)cc1` [Tolbutamide] gave a drug sensitivity score (Kuramochi) of 0 DSS, a drug sensitivity score (OVCAR3) of 0 DSS and a drug sensitivity score (OVCAR4) of 0 DSS.
`COc1cc(C(=O)O)ccc1NC(=O)[C@@H]1N[C@@H](CC(C)(C)C)[C@](C#N)(c2ccc(Cl)cc2F)[C@H]1c1cccc(Cl)c1F` [Idasanutlin] gave a drug sensitivity score (Kuramochi) of 0 DSS, a drug sensitivity score (OVCAR3) of 0 DSS and a drug sensitivity score (OVCAR4) of 0 DSS.
For `NC(=O)N1c2ccccc2CC(=O)c2ccccc21` [Oxcarbazepine], the drug sensitivity score (Kuramochi) was 0 DSS, the drug sensitivity score (OVCAR3) was 0 DSS and the drug sensitivity score (OVCAR4) was 0 DSS.
For `COC(=O)Nc1nc2cc(C(=O)c3ccc(F)cc3)ccc2[nH]1` [Flubendazole], the drug sensitivity score (Kuramochi) was 1.5 DSS, the drug sensitivity score (OVCAR3) was 3.2 DSS and the drug sensitivity score (OVCAR4) was 1.1 DSS.
Work on `O=C(O)c1cc(/N=N/c2ccc(S(=O)(=O)Nc3ccccn3)cc2)ccc1O` [Sulfasalazine] yielded a drug sensitivity score (Kuramochi) of 0 DSS, a drug sensitivity score (OVCAR3) of 0 DSS and a drug sensitivity score (OVCAR4) of 0 DSS.
`COCc1c(C(C)C)nc(C(C)C)c(/C=C/[C@@H](O)C[C@@H](O)CC(=O)O)c1-c1ccc(F)cc1` [Cerivastatin (sodium)] was tested, and the drug sensitivity score (Kuramochi) was 0 DSS, the drug sensitivity score (OVCAR3) was 0 DSS and the drug sensitivity score (OVCAR4) was 0 DSS.
With `Cc1ccc2ccc(C(Nc3ccccc3)c3ccccc3)c(O)c2n1` (configuration not stated) the drug sensitivity score (Kuramochi) was 0 DSS, the drug sensitivity score (OVCAR3) was 0 DSS and the drug sensitivity score (OVCAR4) was 0 DSS.
`NC[C@H](O)c1ccc(O)c(O)c1` [Norepinephrine (hydrochloride)] gave a drug sensitivity score (Kuramochi) of 0 DSS, a drug sensitivity score (OVCAR3) of 0 DSS and a drug sensitivity score (OVCAR4) of 0 DSS.
In the case of `C[Se]CC[C@H](N)C(=O)O` [Selenomethionine], the drug sensitivity score (Kuramochi) is reported as 0 DSS, the drug sensitivity score (OVCAR3) is reported as 0 DSS and the drug sensitivity score (OVCAR4) is reported as 0 DSS.
`C[C@H]1C[C@@H]2[C@H]([C@@H](O)C[C@@]3(C)[C@H]2CC[C@]3(O)C(=O)CO)[C@@]2(C)C=CC(=O)C=C12` [Methylprednisolone] was tested, and the drug sensitivity score (Kuramochi) was 0 DSS, the drug sensitivity score (OVCAR3) was 0 DSS and the drug sensitivity score (OVCAR4) was 0 DSS.
`C[C@H](N[C@@H](CCc1ccccc1)C(=O)O)C(=O)N1CCC[C@H]1C(=O)O` [Enalaprilat (dihydrate)] was tested, and the drug sensitivity score (Kuramochi) was 0 DSS, the drug sensitivity score (OVCAR3) was 0 DSS and the drug sensitivity score (OVCAR4) was 0 DSS.
With `COc1cc([C@@H]2c3cc4c(cc3[C@@H](O[C@@H]3O[C@@H]5CO[C@@H](C)O[C@H]5[C@H](O)[C@H]3O)[C@H]3COC(=O)[C@H]23)OCO4)cc(OC)c1O` [Etoposide] the drug sensitivity score (Kuramochi) was 0 DSS, the drug sensitivity score (OVCAR3) was 0 DSS and the drug sensitivity score (OVCAR4) was 0 DSS.
Molecule `CCOC(=O)C1=C(C)NC(C)=C(C(=O)OC)C1c1cccc(Cl)c1Cl` (configuration not stated) [Felodipine] has a drug sensitivity score (Kuramochi) of 4.6 DSS, a drug sensitivity score (OVCAR3) of 2.4 DSS and a drug sensitivity score (OVCAR4) of 2.9 DSS.
With `COc1cc(NS(C)(=O)=O)ccc1Nc1c2ccccc2nc2ccccc12` [Amsacrine (hydrochloride)] the drug sensitivity score (Kuramochi) was 0 DSS, the drug sensitivity score (OVCAR3) was 0 DSS and the drug sensitivity score (OVCAR4) was 0 DSS.
In the case of `CCCc1nn(C)c2c(=O)[nH]c(-c3cc(S(=O)(=O)N4CCN(C)CC4)ccc3OCC)nc12` [Sildenafil (citrate)], the drug sensitivity score (Kuramochi) is reported as 0 DSS, the drug sensitivity score (OVCAR3) is reported as 0 DSS and the drug sensitivity score (OVCAR4) is reported as 0.3 DSS.
With `Cc1cc2c(C(C)C)c(O)c(O)c(C=O)c2c(O)c1-c1c(C)cc2c(C(C)C)c(O)c(O)c(C=O)c2c1O` [Gossypol (acetic acid)] the drug sensitivity score (Kuramochi) was 0 DSS, the drug sensitivity score (OVCAR3) was 0 DSS and the drug sensitivity score (OVCAR4) was 0 DSS.
`CC1(C)NC(=O)N(c2ccc([N+](=O)[O-])c(C(F)(F)F)c2)C1=O` [Nilutamide] showed a drug sensitivity score (Kuramochi) of 0 DSS, a drug sensitivity score (OVCAR3) of 0 DSS and a drug sensitivity score (OVCAR4) of 0 DSS.
Work on `NC[C@H](O)c1ccc(O)c(O)c1` [Norepinephrine] yielded a drug sensitivity score (Kuramochi) of 0 DSS, a drug sensitivity score (OVCAR3) of 0 DSS and a drug sensitivity score (OVCAR4) of 0 DSS.
In the case of `CCCCc1oc2ccccc2c1C(=O)c1cc(I)c(OCCN(CC)CC)c(I)c1` [Amiodarone (hydrochloride)], the drug sensitivity score (Kuramochi) is reported as 0 DSS, the drug sensitivity score (OVCAR3) is reported as 0 DSS and the drug sensitivity score (OVCAR4) is reported as 0 DSS.
In the case of `C[C@@H]1CC[C@]2(C(=O)O[C@@H]3O[C@H](CO)[C@@H](O)[C@H](O)[C@H]3O)CC[C@]3(C)C(=CC[C@@H]4[C@@]5(C)CC[C@H](O[C@@H]6OC[C@H](O)[C@H](O)[C@H]6O)C(C)(C)[C@@H]5CC[C@]43C)[C@@H]2[C@]1(C)O` [Ziyuglycoside I], the drug sensitivity score (Kuramochi) is reported as 0 DSS, the drug sensitivity score (OVCAR3) is reported as 0 DSS and the drug sensitivity score (OVCAR4) is reported as 0 DSS.
`NCCNc1ccc(NCCN)c2c1C(=O)c1ccncc1C2=O` [Pixantrone (dimaleate)] gave a drug sensitivity score (Kuramochi) of 0 DSS, a drug sensitivity score (OVCAR3) of 0 DSS and a drug sensitivity score (OVCAR4) of 0 DSS.
Work on `N[C@@H](C=O)[C@@H](O)[C@H](O)[C@H](O)CO` [Glucosamine (hydrochloride)] yielded a drug sensitivity score (Kuramochi) of 0 DSS, a drug sensitivity score (OVCAR3) of 0 DSS and a drug sensitivity score (OVCAR4) of 0 DSS.
`O=C1NCCN1CCN1CCC(c2cn(-c3ccc(F)cc3)c3ccc(Cl)cc23)CC1` [Sertindole] showed a drug sensitivity score (Kuramochi) of 0 DSS, a drug sensitivity score (OVCAR3) of 0 DSS and a drug sensitivity score (OVCAR4) of 0 DSS.
For `Clc1ccc(C(c2ccccc2Cl)C(Cl)Cl)cc1` (configuration not stated) [Mitotane], the drug sensitivity score (Kuramochi) was 0 DSS, the drug sensitivity score (OVCAR3) was 0 DSS and the drug sensitivity score (OVCAR4) was 0 DSS.
`CC1(C)O[C@@H]2C[C@H]3[C@@H]4CCC5=CC(=O)CC[C@]5(C)[C@@]4(F)[C@@H](O)C[C@]3(C)[C@]2(C(=O)CCl)O1` [Halcinonide] showed a drug sensitivity score (Kuramochi) of 0 DSS, a drug sensitivity score (OVCAR3) of 0 DSS and a drug sensitivity score (OVCAR4) of 0 DSS.
With `Cc1cn(-c2cc(NC(=O)c3ccc(C)c(Nc4nccc(-c5cccnc5)n4)c3)cc(C(F)(F)F)c2)cn1` [Nilotinib (monohydrochloride monohydrate)] the drug sensitivity score (Kuramochi) was 0 DSS, the drug sensitivity score (OVCAR3) was 0 DSS and the drug sensitivity score (OVCAR4) was 0 DSS.
`N#CC[C@H](C1CCCC1)n1cc(-c2ncnc3[nH]ccc23)cn1` [Ruxolitinib (S enantiomer)] was tested, and the drug sensitivity score (Kuramochi) was 0 DSS, the drug sensitivity score (OVCAR3) was 0 DSS and the drug sensitivity score (OVCAR4) was 0 DSS.
In the case of `CC(C)C[C@H](NC(=O)CNC(=O)c1cc(Cl)ccc1Cl)B(O)O` [Ixazomib], the drug sensitivity score (Kuramochi) is reported as 1.7 DSS, the drug sensitivity score (OVCAR3) is reported as 1.3 DSS and the drug sensitivity score (OVCAR4) is reported as 2.2 DSS.
`COc1cc2c(cc1OC)[C@@H]1Cc3ccc(OC)c(OC)c3CN1CC2` [Tetrahydropalmatine] was tested, and the drug sensitivity score (Kuramochi) was 0 DSS, the drug sensitivity score (OVCAR3) was 0 DSS and the drug sensitivity score (OVCAR4) was 0 DSS.
